In PubChem BioAssay AID651640 (Broad Institute, 2012):
In all, about 350,000 compounds went through this assay and about 6,000 (1.7%) were called active. The inconclusive results got no clear call from the source; some entries with a clear call stand among them for comparison. Cut-off read from the data, not from the text of the source: active = CPE inhibition above about 20% (passing the limit was not always enough); inconclusive = no clear call, values can overlap the other calls; tested in BHK-21 cells.

Assay: protection of cells from dengue 2 killing – plate reader, single concentration, primary screen (AID 651640);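 note: 0% = median of neutral control wells and 100% = median of positive control wells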
Settings: DENV2-infected cells, cytopathic effect rescue, at 9.99 µM, stronger effect = higher value

SMILES	CPE inhibition
Cc1cc(C)c2c(n1)sc1c(=O)n(Cc3ccc(F)cc3)cnc12	inconclusive: 26.6%
C[C@@H]1CN([C@H](C)CO)C(=O)Cc2cc(NS(=O)(=O)c3cccs3)ccc2O[C@@H]1CN(C)C(=O)NC1CCCCC1	inconclusive: 24.6%
CCCN(C)C[C@H]1Oc2ncc(C#CC3(O)CCCC3)cc2C(=O)N([C@@H](C)CO)C[C@H]1C	inactive: 9.11%
CN(C)CCNc1nc(Oc2ccccc2)c2sccc2n1	inconclusive: 64.8%
Cc1[nH]c(C)c(S(=O)(=O)NCc2ccc(OC(C)C)cc2)c1C(=O)N1CCCC1	inconclusive: 21.4%
Cc1cccc(Nc2ccc([N+](=O)[O-])cc2C(=O)O)c1	inconclusive: 35.8%
O=C(N[C@@H]1C=C[C@@H](CC(=O)N2CCN(c3ccccc3)CC2)O[C@H]1CO)c1ccccc1	inactive: 19.7%
COc1ccc(NC(=O)Nc2ccc3c(c2)CC(=O)N([C@@H](C)CO)C[C@@H](C)[C@@H](CN(C)C)O3)cc1	inconclusive: 22.1%
Cc1ccc(S(=O)(=O)N(C)C)cc1NC(=O)COc1ccc(-c2nnco2)cc1	inactive: 12.3%
CCOC(=O)C1C(c2cccs2)NC(=O)NC1(O)C(F)(F)F (configuration not stated)	inactive: 10.6%
Cc1ccc(C(=O)OCC(=O)N(CC(C)C)c2c(N)n(Cc3ccccc3)c(=O)[nH]c2=O)s1	inconclusive: 29%
O=C1CCC[C@@H]2Cc3nc4ccc(O)cc4cc3[C@@H]3CCN1[C@H]23	inconclusive: 42.5%
COc1ccc(-c2ccccc2[C@H]2[C@@H](C#N)N(C(=O)NC3CCCC3)[C@H]2CO)cc1	inconclusive: 40.8%
N#Cc1ccc(CC(=O)c2ccccc2)[nH]c1=O	inconclusive: 27%
COc1ccc(CCNC(=O)CSC2=NS(=O)(=O)c3ccccc3N2)cc1OC	active: 81.7%
C[C@H](CO)N1C[C@H](C)[C@@H](CN(C)C(=O)NC2CCCCC2)OCCCC[C@H](C)Oc2ccc(NC(=O)Cc3ccccc3)cc2C1=O	inactive: -5.4%
CCN1C(=O)[C@H]2[C@@H](c3ccc(-c4ccc(Cl)c(Cl)c4)cc3)N[C@@](C)(C(=O)OC)[C@H]2C1=O	inconclusive: 42.6%
COc1ccc(C#Cc2cnc3c(c2)C(=O)N([C@@H](C)CO)C[C@H](C)[C@@H](CN(C)C(=O)c2ccccc2F)O3)cc1	inconclusive: 25.4%
NC(=O)[C@@H]1CCCN1C(=O)[C@H](CCc1ccccc1)NC(=O)[C@H]1O[C@@H](n2cnc3c(N)ncnc32)[C@H](O)[C@@H]1O	active: 39.9%
C[C@@H]1CN([C@@H](C)CO)C(=O)c2cc(NC(=O)Nc3cccc4ccccc34)ccc2O[C@@H](C)CCCCO[C@@H]1CN(C)S(=O)(=O)c1ccc(F)cc1	active: 20.8%
CC(=O)Nc1ccc(Oc2ccccc2)cc1	inconclusive: 20.2%
Cc1noc(C)c1S(=O)(=O)Nc1ccc2c(c1)C(=O)N([C@@H](C)CO)C[C@@H](C)[C@H](CN(C)Cc1ccccc1)OCCCC[C@H](C)O2	inactive: 0.632%
C#CCN(C[C@H]1[C@H](OC(=O)NCc2ccccc2F)[C@H](OC(=O)NCc2ccccc2F)C[C@H]2C(=O)N(c3ccccc3)C(=O)[C@@H]12)S(=O)(=O)c1ccc(C)cc1	inconclusive: 23%
Cc1csc(NC(=O)CSc2nnc(Cc3cccn3C)n2CCc2ccccc2)n1	inconclusive: 23.9%

SMILES	CPE inhibition
CN(C)S(=O)(=O)N1CCC(Oc2ccc(C(=O)N3CCCCCCC3)cc2)CC1	active: 45.5%
COc1ccc(Cl)cc1NC(=O)COC(=O)c1ccc(Br)o1	inconclusive: 20.7%
CCCN(C)C[C@H]1OCCCC[C@H](C)Oc2ccc(N(C)C)cc2C(=O)N([C@H](C)CO)C[C@H]1C	inactive: 8.46%
C[C@H]1CCCCO[C@@H](CN(C)C)[C@@H](C)CN([C@@H](C)CO)C(=O)c2cc(NC(=O)Nc3ccc(C(F)(F)F)cc3)ccc2O1	inactive: -14.3%
CCCNC(=O)C[C@@H]1CC[C@@H]2[C@@H](COc3ccc(NC(=O)Cc4ccccc4)cc3C(=O)N2C)O1	inactive: 3.37%
COC(=O)C[C@H]1CC[C@H]2[C@@H](COc3ccc(NS(=O)(=O)c4ccccc4F)cc3C(=O)N2C)O1	inactive: -11.2%
C[C@@H]1CN([C@@H](C)CO)S(=O)(=O)c2ccc(C#CC3(O)CCCC3)cc2O[C@H]1CN(C)C(=O)Cc1ccccc1	inconclusive: 34.9%
CCCCNC(=S)NNC(=O)c1ccc2c(c1)OCO2	active: 142%
O=C(C[C@H]1C[C@H]2c3cc(NC(=O)C4CCC4)ccc3O[C@H]2[C@H](CO)O1)NCCN1CCCCC1	inactive: 1.55%
CN1[C@@H]2c3ccc(-c4ccccc4)c(=O)n3C[C@H]1[C@H](CO)[C@H]2C(=O)NCCCN1CCOCC1	inconclusive: 28.2%
COc1ccccc1N(C)C(=O)c1cc(S(=O)(=O)N2CCc3ccccc32)cn1C	inconclusive: 20.6%
Cc1ccc(NC(=O)CCC(=O)c2ccc(Br)cc2)cc1	inconclusive: 36.9%
CC(C)(C)c1ccc(S(=O)(=O)NCC2CCCO2)cc1 (configuration not stated)	inactive: -2.38%
Cc1ccc(S(=O)(=O)Nc2ccc3c(c2)CC(=O)N([C@@H](C)CO)C[C@H](C)[C@H](CN(C)Cc2ccc(Oc4ccccc4)cc2)O3)cc1	active: 68.7%
O=C(CCc1nc2sc3c(c2c(=O)[nH]1)CCCC3)NCCOc1ccccc1	inconclusive: 25.1%
CN(C)CC(=O)Nc1ccc2c(c1)[C@@H]1C[C@@H](CC(=O)N(C)C)O[C@H](CO)[C@@H]1O2	inconclusive: 42.1%
C[C@@H]1CN([C@@H](C)CO)C(=O)c2c(c3ccccc3n2C)-c2ccccc2CO[C@H]1CN(C)Cc1cccc2c1OCCCO2	active: 21.4%
COc1ccccc1CNC(=O)C[C@H]1CC[C@@H]2[C@H](COC[C@H](O)CN2Cc2ccccc2)O1	inactive: -0.546%
CCCc1ccc(C(O)c2ncc(-c3cccc(F)c3)[nH]2)cc1 (configuration not stated)	inactive: 0.585%
CC(C)[C@H](NC(=O)OC(C)(C)C)C(=O)NCC1CCC(C(=O)N[C@@H](Cc2ccccc2)C(=O)O)CC1 (some centres not stated)	active: 40%
Cc1cc2cc(CNC(=O)c3cccc([N+](=O)[O-])c3)ccc2n1C	inconclusive: 75%
Cc1ccc(CNS(=O)(=O)c2c(C(=O)N3CCCCC3)c(C)n(C)c2C)cc1	inconclusive: 33.6%
CC1Cc2nc(SCC(=O)NCc3ccccc3)n(Cc3ccccc3)c(=O)c2S1 (configuration not stated)	inactive: 2.39%
CC1=C(C(=O)N(C)C)CC(CC(=O)NCCc2ccccn2)C(=O)N1Cc1ccc(F)cc1 (configuration not stated)	inconclusive: 59.4%

SMILES	CPE inhibition
CCOC(=O)c1ccc(NC(=O)C2=C(C)Nc3nc(CCCO)nn3C2c2cccc(C)c2)cc1 (configuration not stated)	active: 73.4%
Cn1c(=O)c2c(ncn2CC(O)CNc2ccc(F)cc2)n(C)c1=O (configuration not stated)	inactive: -2.18%
O=S(=O)(Nc1ccc(Cl)cn1)c1ccc(Cl)cc1	inactive: -1.85%
Cc1cc(C(=O)COC(=O)C23CC4CC(CC(O)(C4)C2)C3)c(C)n1C	inconclusive: 33.4%
CO[C@@H]1CN(C)C(=O)c2ccc(NC(=O)C3CCOCC3)cc2OC[C@@H](C)N(CC2CCCCC2)C[C@H]1C	active: 53.7%
C=CCn1c(SCC(=O)NC(=O)c2cccn2C)nc2ccccc2c1=O	inconclusive: 25.1%
COCCNC(=O)C[C@H]1CC[C@@H]2[C@@H](COc3ccc(NC(=O)COC)cc3C(=O)N2C)O1	inactive: 4.3%
CC(=O)c1sc(N/N=C/c2cccc([N+](=O)[O-])c2)nc1C	inconclusive: 22.7%
O=C(N[C@H]1C=C[C@@H](CC(=O)N2CCOCC2)O[C@H]1CO)c1cccc(F)c1	inconclusive: 30%
O=C(Nc1ccc(N2CCN(C(=O)c3ccco3)CC2)cc1)c1ccc(Br)cc1	inconclusive: 20.1%
COCCCN1C(=O)C(CC(=O)NC(c2ccccc2)c2ccccc2)CC(C(=O)N(C)C)=C1C (configuration not stated)	inconclusive: 55.2%
COc1ccc2c3c([nH]c2c1)[C@H](CO)N(S(C)(=O)=O)CC31CN(C(=O)c2ccccc2)C1	inactive: -2.33%
CC(OC(=O)c1ccc(O)cc1)C(=O)Nc1nc(-c2ccccc2)cs1 (configuration not stated)	active: 37.9%
CC(C)(C)c1ccc(NNC(=O)C2CCC2)cc1	inconclusive: 20.4%
COCc1nnc(NC(=O)c2cccc(NC(=O)c3ccccc3)c2)s1	inconclusive: 30.3%
CCc1nnc(NC(=O)CCC(=O)N2CCN(Cc3ccc(OC)c(F)c3)CC2)s1	inconclusive: 21.1%
COCC(=O)N1CC2(C1)CN(C(=O)NC1CCCC1)[C@@H](CO)c1c2c2ccc(OC)cc2n1C	inconclusive: 40.6%
O=S1(=O)CCOC[C@H](Cc2ccccc2)N1Cc1ccc(F)cc1	inconclusive: 31.5%
Nc1cccc(C(=O)Nc2ccc(N)cc2Cl)c1	inconclusive: 30.3%
Cc1cc(C(=O)Nc2cccc3c2O[C@@H](CN(C)S(C)(=O)=O)[C@@H](C)CN([C@H](C)CO)C3=O)n(C)n1	inactive: 4.4%
C[C@H](CO)N1C[C@H](C)[C@@H](CN(C)S(C)(=O)=O)Oc2ccc(NC(=O)Nc3ccc(F)cc3)cc2C1=O	inactive: 2.61%
O=C(CSc1nncn1-c1ccccc1)Nc1cccc(S(=O)(=O)N2CCCCC2)c1	inconclusive: 36.7%
COc1ccc(CNC(=O)c2ccc(CS(=O)(=O)c3ccccc3C)o2)cc1	inconclusive: 23.7%
CC(C)C[C@H](NC(=O)c1nc[nH]c1C(=O)NC(c1ccccc1)c1ccccc1)C(=O)OCc1ccccc1	inconclusive: 33.4%
